Measured values as given in patent US5321030A, “Creatine analogs having antiviral activity” (priority 1991, dated 1994).
At least one structure is not confirmed: it was looked up by name or label, or the drawing left a doubt.

Experiments:
[1] = test system: Pseudorabies virus, Aujeszky strain; type: cell-based; conditions: similar assay
[2] = test system: HCMV, strain AD-169; assay: Plaque reduction assay, HCMV strain AD-169; type: cell-based, Human Cytomegalovirus; conditions: 2 or 4 mg/ml
[3] = test system: HCMV, strain C8704 (DHPG resistant); type: cell-based, Human Cytomegalovirus; conditions: 15.8 mg/ml
[4] = test system: HCMV, strain C8805-37 (DHPG resistant); type: cell-based, Human Cytomegalovirus; conditions: 15.8 mg/ml

## Nc1nc(O)c2ncn(COC(CO)CO)c2n1 [DHPG, dihydroxypropoxymethylguanine, reference compound]
[1]
  effect against Pseudorabies virus: less effective than ribavirin

## N=C1NCCN1CCC(=O)O [homocyclocreatine, 1-carboxyethyl-2-iminoimidazolidine, reference compound]
[2]
  antiviral activity: Weak antiviral activity
[3]
  antiviral activity: Weak antiviral activity
[4]
  antiviral activity: Weak antiviral activity
